Assay results as given in the supplement of paper PMC5770031.
Some of the results follow. This data set is noisy: repeats of one test often differ as much as different tests do.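 ATM8/balancer (normal ATM) heterozygous flies were crossed on treated food; parents laid eggs 5–6 days, offspring developed ~12 days, so parents and larvae ingested compound. Readout: fraction of emerged adults homozygous for ATM8 versus 2% DMSO controls. Compounds were neutral at 10–20% homozygotes, harmful below 10%, helpful above 20%.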

Each compound was assayed on Drosophila melanogaster ATM8 (temperature-sensitive ATM allele) (assay: fraction of eclosed F1 progeny that are homozygous ATM8 (rescue of developmental lethality); higher = more rescue of ATM8 developmental lethality; extreme values may be limits of the assay). Settings: compound concentration applied to food 0.2 mM; 21 °C.
For C#CCN(C)CCCOc1ccc(Cl)cc1Cl, the “fraction of eclosed F1 progeny that are homozygous ATM8” value (shortened to “fraction”) was 0.19.
With COc1ccc(-c2cc(=O)c3c(OC)c(OC)c(OC)cc3o2)cc1OC the “fraction” value was 0.0833.
For COc1ccc2c(c1)O[C@H]1c3ccc(OC)cc3OC[C@@H]21, the “fraction” value was 0.333.
c1ccc(CN(CC2=NCCN2)c2ccccc2)cc1 was tested, and the “fraction” value was 0.
NC(=O)NS(=O)(=O)c1ccc(N)cc1 was tested, and the “fraction” value was 0.0488.
For CC(=O)N(CC(O)CN(C(C)=O)c1c(I)c(C(=O)NCC(O)CO)c(I)c(C(=O)NCC(O)CO)c1I)c1c(I)c(C(=O)NCC(O)CO)c(I)c(C(=O)NCC(O)CO)c1I (stereo not given), the “fraction” value was 0.0833.
With Cc1cc(O)c2c(O)c3c(O)cccc3cc2c1 the “fraction” value was 0.13.
For C=CCSCC1Nc2cc(Cl)c(S(N)(=O)=O)cc2S(=O)(=O)N1 (stereo not given), the “fraction” value was 0.0169.
For NC(=O)c1cccc(N)c1, the “fraction” value was 0.152.
Cc1cc(-c2ccc(/N=N/c3ccc4c(S(=O)(=O)O)cc(S(=O)(=O)O)c(N)c4c3O)c(C)c2)ccc1/N=N/c1ccc2c(S(=O)(=O)O)cc(S(=O)(=O)O)c(N)c2c1O was tested, and the “fraction” value was 0.185.
COc1ccc(/C=C/c2cc(O)cc(O)c2)cc1 was tested, and the “fraction” value was 0.111.
With CC(=O)OCC(=O)[C@@]1(OC(C)=O)[C@@H](C)C[C@H]2[C@@H]3C[C@H](F)C4=CC(=O)C=C[C@]4(C)[C@@]3(F)[C@@H](O)C[C@@]21C the “fraction” value was 0.114.
In the case of C[C@]1(Cn2ccnn2)[C@H](C(=O)O)N2C(=O)C[C@H]2S1(=O)=O, the “fraction” value is reported as 0.0345.
CC[C@@H](CO)NCCN[C@@H](CC)CO was tested, and the “fraction” value was 0.
CCN(CC)CCOCCOC(=O)C(CC)(CC)c1ccccc1 was tested, and the “fraction” value was 0.154.
For CCCCC/C=C\C/C=C\C/C=C\C/C=C\CCCC(=O)O, the “fraction” value was 0.0833.
Nc1ccccc1C(=O)CC(N)C(=O)O (stereo not given) was tested, and the “fraction” value was 0.029.
For CC[C@H]1CN2CC[C@H]1C[C@H]2[C@H](O)c1ccnc2ccc(OC)cc12, the “fraction” value was 0.195.
With CCCOc1ccc(C(=O)OCCN(CC)CC)cc1N the “fraction” value was 0.255.
In the case of CC(=O)OCC(=O)[C@H]1CC[C@H]2[C@@H]3CCC4=CC(=O)CC[C@]4(C)[C@H]3CC[C@]12C, the “fraction” value is reported as 0.0606.
In the case of COc1cc(O)ccc1C(C)=O, the “fraction” value is reported as 0.3.
For O=c1[nH]c2ccccc2n1C1CCN(CCCC(c2ccc(F)cc2)c2ccc(F)cc2)CC1, the “fraction” value was 0.0606.
For CC(CN(C)C)CN1c2ccccc2Sc2ccccc21 (stereo not given), the “fraction” value was 0.226.
In the case of CC1(C)[C@@H](OC(=O)CCC(=O)O)CC[C@]2(C)[C@H]3C(=O)C=C4[C@@H]5C[C@@](C)(C(=O)O)CC[C@]5(C)CC[C@@]4(C)[C@]3(C)CC[C@@H]12, the “fraction” value is reported as 0.167.
With CC(=O)[O][Hg][c]1ccccc1 the “fraction” value was 0.154.
For N=C(N)NCCN1CCCCCCC1, the “fraction” value was 0.0667.
For CC(C)CCCC(C)NC(C)C (stereo not given), the “fraction” value was 0.149.
For Cc1cc2c(C(C)C)c(O)c(O)c(C=O)c2c(O)c1-c1c(C)cc2c(C(C)C)c(O)c(O)c(C=O)c2c1O, the “fraction” value was 0.25.
In the case of C=CCOC(Cn1ccnc1)c1ccc(Cl)cc1Cl (stereo not given), the “fraction” value is reported as 0.127.
With CC(=O)Nc1cc([As](=O)(O)O)ccc1O the “fraction” value was 0.109.
CO/N=C(\C(=O)N[C@@H]1C(=O)N2C(C(=O)OC(C)OC(C)=O)=C(COC(N)=O)CS[C@H]12)c1ccco1 (stereo not given in full) was tested, and the “fraction” value was 0.204.
In the case of COc1cc2c(cc1OC)[C@@H]1C(=O)c3ccc(OC)c(CC=C(C)C)c3O[C@@H]1CO2, the “fraction” value is reported as 0.0769.
For C=CCCCCCCCCC(=O)[O-].C=CCCCCCCCCC(=O)[O-].[Zn+2], the “fraction” value was 0.0125.
With CCNC(=O)/C=C/c1cccc(Br)c1 the “fraction” value was 0.
In the case of O=c1cc(-c2ccccc2)oc2cccc(O)c12, the “fraction” value is reported as 0.0526.
In the case of NCCc1ccccc1, the “fraction” value is reported as 0.16.
COC(=O)Nc1nc2cc([S+]([O-])c3ccccc3)ccc2[nH]1 (stereo not given) was tested, and the “fraction” value was 0.192.
For COc1ccc2c(=O)c(CC(=O)O)coc2c1, the “fraction” value was 0.0317.
C[C@@H]1O[C@@H](O[C@@H]2C=C3CC[C@@H]4[C@H](CC[C@]5(C)[C@@H](c6ccc(=O)oc6)CC[C@]45O)[C@@]3(C)CC2)[C@H](O)[C@H](O)[C@H]1O was tested, and the “fraction” value was 0.164.
CNc1ccccc1C(=O)N1CCc2c([nH]c3ccccc23)C1=O was tested, and the “fraction” value was 0.0238.
For Cc1cnc[nH]1, the “fraction” value was 0.263.
In the case of Cc1cc(N)c2ccccc2[n+]1CCCCCCCCCC[n+]1c(C)cc(N)c2ccccc21, the “fraction” value is reported as 0.0682.
Nc1ccn([C@@H]2CS[C@H](CO)O2)c(=O)n1 was tested, and the “fraction” value was 0.037.
Nc1c2c(nc3ccccc13)CCCC2O (stereo not given) was tested, and the “fraction” value was 0.
In the case of CN(C)C(=O)Oc1ccc[n+](C)c1, the “fraction” value is reported as 0.0374.
With COc1ccccc1OCC(O)COC(N)=O (stereo not given) the “fraction” value was 0.132.
In the case of FC(F)(F)COCC(F)(F)F, the “fraction” value is reported as 0.0698.
For CN1Cc2c(N)cccc2C(c2ccccc2)C1 (stereo not given), the “fraction” value was 0.08.
In the case of CCN[C@@H]1C[C@H](N)[C@@H](O[C@H]2OC(CN)=CC[C@H]2N)[C@H](O)[C@H]1O[C@H]1OC[C@](C)(O)[C@H](NC)[C@H]1O, the “fraction” value is reported as 0.
For C=C(C)[C@@H]1CC=C(CO)CC1, the “fraction” value was 0.0698.
In the case of CC(=O)Oc1cccc(C)c1 [meta-CRESYL ACETATE], the “fraction” value is reported as 0.17.
For CC1(C)CC2C1CCC1(C)OC2(C)CCC1O (stereo not given), the “fraction” value was 0.104.
NC(=O)[C@@H]1CCCN1C(=O)[C@H](Cc1c[nH]cn1)NC(=O)[C@@H]1CCC(=O)N1 was tested, and the “fraction” value was 0.125.
For CN(C)CC(c1ccc(O)cc1)C1(O)CCCCC1 (stereo not given), the “fraction” value was 0.229.
OCc1ccccc1O was tested, and the “fraction” value was 0.148.
For O=C(c1ccccc1)c1ccc2n1CCC2C(=O)O (stereo not given), the “fraction” value was 0.103.
In the case of N[C@@H](C(=O)O)[C@@H](O)[C@H](O)[C@H](O)CO, the “fraction” value is reported as 0.0577.
For COc1c(N2CCNC(C)C2)c(F)cc2c(=O)c(C(=O)O)cn(C3CC3)c12 (stereo not given), the “fraction” value was 0.087.
CC(C)Cn1c(=O)n(C)c(=O)c2[nH]cnc21 was tested, and the “fraction” value was 0.167.
In the case of O=c1[nH]cnc2c1ncn2[C@@H]1O[C@H](CO)[C@@H](O)[C@H]1O, the “fraction” value is reported as 0.271.
COc1cc([C@@H]2c3cc4c(cc3[C@@H](O[C@@H]3O[C@@H]5CO[C@@H](c6cccs6)O[C@H]5[C@H](O)[C@H]3O)[C@H]3COC(=O)[C@H]23)OCO4)cc(OC)c1O was tested, and the “fraction” value was 0.471.
With O=c1ccc2ccccc2o1 the “fraction” value was 0.203.
With CC1(C)C=Cc2cc3ccc(=O)oc3cc2O1 the “fraction” value was 0.176.
For NCCOB(c1ccccc1)c1ccccc1, the “fraction” value was 0.12.
In the case of C/C(=C\CO)CC[C@H](C)CCC[C@H](C)CCCC(C)C, the “fraction” value is reported as 0.0893.
For COc1cc(OC)c2c(=O)c(-c3ccccc3OC)coc2c1, the “fraction” value was 0.162.
With CN(C)CCCN1c2ccccc2Sc2ccc(Cl)cc21 the “fraction” value was 0.0811.
In the case of CCOC(=O)c1c(C)cc(O)cc1O, the “fraction” value is reported as 0.16.
O=C(O)[C@H]1O[C@@H](Oc2cc3oc(-c4ccccc4)cc(=O)c3c(O)c2O)[C@H](O)[C@@H](O)[C@@H]1O was tested, and the “fraction” value was 0.286.
For O=C(O)[C@H](O)[C@@](O)(Cc1ccc(O)cc1)C(=O)O, the “fraction” value was 0.156.
COc1ccnc(C[S+]([O-])c2nc3cc(OC(F)F)ccc3[nH]2)c1OC (stereo not given) was tested, and the “fraction” value was 0.138.
For O=c1[nH]c(=O)c2ccccc2o1, the “fraction” value was 0.217.
With Nc1ccn([C@@H]2O[C@H](CO)[C@@H](O)[C@@H]2O)c(=O)n1 the “fraction” value was 0.0667.
In the case of OC[C@H]1O[C@H](OCC2O[C@@H](O)[C@H](O)[C@@H](O)[C@@H]2O)[C@H](O)[C@@H](O)[C@H]1O (stereo not given in full), the “fraction” value is reported as 0.222.
In the case of CC(=O)[C@H]1CC[C@H]2[C@@H]3CCC4C[C@H](O)CC[C@]4(C)[C@H]3C[C@H](O)[C@]12C (stereo partly drawn) [3alpha,12alpha-DIHYDROXY-PREGNAN-20-ONE], the “fraction” value is reported as 0.208.
With CC(=O)N[C@@H](C=O)[C@@H](O)[C@H](O)[C@H](O)CO the “fraction” value was 0.0968.
CCCCN1CCCCC1C(=O)Nc1c(C)cccc1C (stereo not given) was tested, and the “fraction” value was 0.14.
With CCOC(=O)NNc1nncc2ccccc12 the “fraction” value was 0.109.
For O=[N+]([O-])c1ccc(O)c([N+](=O)[O-])c1, the “fraction” value was 0.0312.
For CC(=O)c1c(O)cc(O)cc1O, the “fraction” value was 0.0851.
For CC1(C)CCC2=C(O1)C(=O)c1ccccc1C2=O [alpha-LAPACHONE], the “fraction” value was 0.302.
O=c1c(-c2cc(O)c(O)c(O)c2)coc2cc(O)c(O)c(O)c12 was tested, and the “fraction” value was 0.216.
In the case of NCCCNCCSP(=O)(O)O, the “fraction” value is reported as 0.0635.
For CC[C@@H](C(=O)[C@@H](C)[C@@H](O)[C@H](C)CCc1ccc(C)c(O)c1C(=O)O)[C@H]1O[C@](CC)([C@H]2CC[C@](O)(CC)[C@H](C)O2)C[C@@H]1C, the “fraction” value was 0.0576.
For CC(C)(C)c1ccc(C(O)CCCN2CCC(C(O)(c3ccccc3)c3ccccc3)CC2)cc1 (stereo not given), the “fraction” value was 0.0526.
Cc1cc(=O)oc2c(O)c(O)ccc12 was tested, and the “fraction” value was 0.239.
CC12CCCC(O)(C1)C1CC(C)(C)C1CC2 (stereo not drawn) [beta-CARYOPHYLLENE ALCOHOL] was tested, and the “fraction” value was 0.135.
With Cc1nc(-c2ccc(OCC(C)C)c(C#N)c2)sc1C(=O)O the “fraction” value was 0.172.
In the case of O=c1ccn([C@@H]2O[C@H](COP(=O)(O)OP(=O)(O)OP(=O)(O)O)[C@@H](O)[C@H]2O)c(=O)[nH]1, the “fraction” value is reported as 0.027.
For COc1cc(O)c2c(=O)cc(-c3ccc(O)cc3)oc2c1, the “fraction” value was 0.279.
In the case of COc1ccc(CC2c3cc(OC)c(OC)cc3CC[N+]2(C)CCC(=O)OCCCCCOC(=O)CC[N+]2(C)CCc3cc(OC)c(OC)cc3C2Cc2ccc(OC)c(OC)c2)cc1OC (stereo not given), the “fraction” value is reported as 0.0417.
For CC(=O)[C@H]1CC[C@H]2[C@@H]3CC=C4C[C@@H](O)CC[C@]4(C)[C@H]3CC[C@]12C, the “fraction” value was 0.0377.
For CN(C)c1ccc(C(=C2C=CC(=[N+](C)C)C=C2)c2ccc(N(C)C)cc2)cc1, the “fraction” value was 0.12.
CON was tested, and the “fraction” value was 0.0816.
CCN(CCO)CCCC(C)Nc1ccnc2cc(Cl)ccc12 (stereo not given) was tested, and the “fraction” value was 0.113.
With CSc1ccc2c(c1)N(CCC1CCCCN1C)c1ccccc1S2 (stereo not given) the “fraction” value was 0.1.
In the case of COc1cc(O)c2c(=O)c(O)c(-c3ccccc3)oc2c1, the “fraction” value is reported as 0.229.
In the case of CC/C(=C(/CC)c1ccc(O)cc1)c1ccc(O)cc1, the “fraction” value is reported as 0.0645.
With CC1=C(/C=C/C(C)=C/C=C/C(C)=C\C(=O)O)C(C)(C)CCC1 the “fraction” value was 0.15.
Cc1cc(-c2ccccc2)nnc1NCCN1CCOCC1 was tested, and the “fraction” value was 0.205.
In the case of NC(N)=Nc1nc(CSCC/C(N)=N/S(N)(=O)=O)cs1, the “fraction” value is reported as 0.037.
With CN[C@@H](Cc1c[nH]c2ccccc12)C(=O)O the “fraction” value was 0.163.
COC1(C)CCC2OC2(C)CCC2C1CC2(C)C (stereo not given) was tested, and the “fraction” value was 0.154.
CC(=O)NCCc1ccc(O)c(-c2c(O)c(O)c3c(c2O)C(=O)c2c(cc(O)c(C(=O)O)c2C(=O)O)C3=O)c1 was tested, and the “fraction” value was 0.279.
In the case of CN(C)[C@@H]1C(O)=C(C(N)=O)C(=O)[C@@]2(O)C(O)=C3C(=O)c4c(O)cccc4[C@@](C)(O)[C@H]3[C@H](O)[C@@H]12, the “fraction” value is reported as 0.174.
